Binding data for 1 molecule are collected here from patent US20220040297A1.

The chains behind the UniProt entries cited, without tags or fusion partners. Residues count along the entry.
UniProt P07766, residues 23-126: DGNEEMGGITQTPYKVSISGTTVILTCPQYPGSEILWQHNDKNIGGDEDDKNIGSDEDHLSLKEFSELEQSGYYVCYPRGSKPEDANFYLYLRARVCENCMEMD

Results are given in words; binding and its absence hold for the method and conditions named. Some results given as binding are weak or reduced against the parent protein; the word gives no strength.

In this assay the target is CD3ε homodimer protein (human) (UniProt P07766). The assay can be described thus: SPR Biacore, method of (6-3).

B1: CE115HA340 (antibody, human IgG1, L234A L235A, N297A, V domains shown)
VH: QVQLVESGGGLVQPGRSLRLSCAASGFTFSNAWMHWVRQAPGKGLEWVAQIKDKSNNYATYYAESVKGRFTISRDDSKNSIYLQMNSLKTEDTAVYYCRYVHYAAYYGVDAWGQGTTVTVSS
VL: DIVMTQSPLSLPVTPGEPASISCRSSQSLVHSNRNTYLHWYQQKPGQAPRLLIYKVSNRFSGVPDRFSGSGSGTDFTLKISRVEAEDVGVYYCGQGTQVPYTFGQGTKLEIK
Take B1: the binding result was “binds”.
